Source: publication PMC10572602, “Molecular Mechanism of STIL Coiled-Coil Domain Oligomerization” (International Journal of Molecular Sciences, 2023)

Test: X-ray crystal structure
Conditions: for mean RMSD of Q729L dimer to L736E dimer: over an average of 58 Cα atoms

L SPDAYRF LTELDRQ LRLLQAQ IQRLLEA QSL-NH2 [STIL CCD718–749 Q729L, STIL CCD peptide with stabilising Q729L mutation; PDB 8oyl]
oligomeric state in the crystal (crystallized at 1.5 mM peptide, 50 mM cadmium chloride, 50 mM sodium acetate, 15% PEG 400, pH 4.6, 20 °C): anti-parallel tetramer | mean RMSD of Q729L dimer to L736E dimer: 1.6 ± 0.5 Å

L SPDAYRF LTEQDRQ LRLEQAQ IQRLLEA QSL-NH2 [STIL CCD718–749 L736E, STIL CCD peptide with destabilising L736E mutation; PDB 8oyk]
oligomeric state in the crystal (crystallized at 0.9 mM peptide, 50 mM Tris, pH 8.0, 10% v/v MPD, 4 °C): antiparallel dimer | mean RMSD of Q729L dimer to L736E dimer: 1.6 ± 0.5 Å | RMSD between the three biological assemblies (over an average of 59 Cαs): 1.5 ± 0.5 Å | RMSD to PDB 5lhw (three biological assemblies of L736E dimer, over an average of 47 Cαs): 6.1 ± 0.3 Å
